The values that follow come from the supplement of paper PMC9549374.

This is one part of the list. No stated cut-off is given here; in the data, active = 2-fold of DMSO or more and inactive = the rest. Single values of this set are uncertain. Some low values are a fixed figure set by the source, not a measured ratio.

The test has as its system CM7/1-hgem mouse ES cell-derived cardiomyocytes. The test is described as follows: maximal number of mAG-hGem(1/110)-positive cardiomyocytes over 96 h, fold-change vs DMSO; higher = more cardiomyocyte cell cycle activity. As to conditions: 1 µM; 96 (max over 12 h time points) h.
For `C=C[C@@](C)(O)CCC1C(=C)CCC2[C@@](C)(CO)CCC[C@]12C` (stereo partly drawn), the maximal number was inactive: 1.

On to `CC[C@H](CC[C@@H](C)[C@H]1CC[C@H]2[C@@H]3CC=C4C[C@@H](O)CC[C@]4(C)[C@H]3CC[C@]12C)C(C)C` [beta-SITOSTEROL], for which the maximal number was inactive: 0.5.

With `C[C@H](N[C@@H](CCc1ccccc1)C(=O)O)C(=O)N1CCC[C@H]1C(=O)O`, the maximal number is inactive: 1.

Turning to `O=C(Oc1ccccc1C(=O)O)c1ccccc1O`, the maximal number is inactive: 1.

For the compound `COc1ccc2c(c1)O[C@H]1c3ccc(OC)cc3OC[C@@H]21`, the maximal number is inactive: 1.

`C[C@@H]1CN(c2c(F)c(N)c3c(=O)c(C(=O)O)cn(C4CC4)c3c2F)C[C@H](C)N1`: the maximal number was inactive: 1.

As to `C=C(C)[C@@H]1CC=C(C(=O)O)CC1`, the maximal number was inactive: 1.

Turning to `COc1ccc2c(c1)OC[C@@H](Cc1ccc(OC)c(OC)c1)[C@@H]2O`, the maximal number was inactive: 1.

On to `COc1ccc([C@H]2COc3c(ccc(O)c3OC)C2)c(OC)c1O`, for which the maximal number was inactive: 1.

Take `COc1cc2c(cc1OC)-c1cc3ccc(OC)c(OC)c3c[n+]1CC2`: the maximal number is inactive: 0.

For `COc1ccc(Cl)cc1C(=O)NCCc1ccc(S(=O)(=O)NC(=O)NC2CCCCC2)cc1`, the maximal number was inactive: 1.

As to `NC(Cn1ccc(=O)c(O)c1)C(=O)O` (stereo not drawn), the maximal number is inactive: 1.

In the case of `COc1c(-c2coc3cc4c(cc3c2=O)CC(OC(C)=O)C(C)(C)O4)ccc2c1C=CC(C)(C)O2` (stereo not drawn), the maximal number is inactive: 1.

Turning to `COc1cc(-c2coc3cc(O)c(OC)c(O)c3c2=O)cc(O)c1OC`, the maximal number is inactive: 1.

Turning to `COc1ccccc1-c1coc2cc(O)ccc2c1=O`, the maximal number was inactive: 1.

For `Nc1nc2c(ncn2COC(CO)CO)c(=O)[nH]1`, the maximal number is inactive: 1.

As for `C[C@H](CCC(=O)O)[C@H]1CC[C@H]2[C@@H]3[C@H](O)C[C@@H]4C[C@H](O)CC[C@]4(C)[C@H]3C[C@H](O)[C@]12C`, the maximal number was inactive: 1.

`O=c1c(-c2ccc(O)cc2)coc2cc(O)cc(O)c12`: the maximal number was inactive: 1.

`C[C@@H](c1ncncc1F)[C@](O)(Cn1cncn1)c1ccc(F)cc1F`: the maximal number was inactive: 1.

In the case of `CN1CCN(c2cc3c(cc2F)c(=O)c(C(=O)O)cn3-c2ccc(F)cc2)CC1`, the maximal number was inactive: 1.

For `COC(=O)c1c(C)cc(OC(=O)c2c(C)cc(O)c(C=O)c2O)c(C)c1O`, the maximal number is inactive: 0.

In the case of `CC1(C)[C@@H](O[C@H]2O[C@H](C(=O)O)[C@@H](O)[C@H](O)[C@H]2O[C@@H]2O[C@H](C(=O)O)[C@@H](O)[C@H](O)[C@H]2O)CC[C@]2(C)[C@H]3C(=O)C=C4[C@@H]5C[C@@](C)(C(=O)O)CC[C@]5(C)CC[C@@]4(C)[C@]3(C)CC[C@@H]12`, the maximal number was inactive: 0.

On to `CCOC(=O)N1CCC(=C2c3ccc(Cl)cc3CCc3cccnc32)CC1`, for which the maximal number is inactive: 1.

`C=C(C)[C@@H]1CC[C@]2(CO)CC[C@]3(C)[C@H](CC[C@@H]4[C@@]5(C)CC[C@H](O)C(C)(C)[C@@H]5CC[C@]43C)[C@@H]12`: the maximal number was inactive: 0.5.

Turning to `COc1ccc(-c2coc3cc(O)ccc3c2=O)c(O)c1O`, the maximal number was inactive: 1.

With `C=C[C@@H](C1=CC(=O)C(OC)=C(OC)C1=O)c1ccccc1`, the maximal number is inactive: 0.5.

With `CN1CCN2c3ccccc3Cc3ccccc3C2C1` (stereo not drawn), the maximal number is inactive: 1.

As to `O=C(O)CSCC(=O)NC1CCSC1=O` (stereo not drawn), the maximal number was inactive: 1.

`COc1cc(OC)cc(OC)c1`: the maximal number was inactive: 1.

With `NC[C@H]1O[C@H](O[C@H]2[C@H](O)[C@@H](O[C@H]3O[C@H](CO)[C@@H](O)[C@H](N)[C@H]3O)[C@H](N)C[C@@H]2N)[C@H](N)[C@@H](O)[C@@H]1O`, the maximal number was inactive: 1.

For `OC[C@H]1O[C@@H](O[C@H]2[C@H](O)[C@@H](O)[C@@H](O)O[C@@H]2CO)[C@H](O)[C@@H](O)[C@@H]1O`, the maximal number was inactive: 1.

As to `CC(C)CCCC(C)C1CCC2C3=CCC4CC(O)CCC4(C)C3CCC21C` (stereo not drawn), the maximal number is inactive: 0.

With `CCCCC(=O)Oc1ccccc1C(=O)O`, the maximal number is active: 3.

With `CC(C(=O)O)c1ccc(CC2CCCC2=O)cc1` (stereo not drawn), the maximal number is inactive: 1.

As to `Cc1c(NC(C)C)c(=O)n(-c2ccccc2)n1C`, the maximal number was inactive: 1.

In the case of `COC(=O)C[C@H]1C(C)(C)C(=O)[C@@H]2CC3=C4CC(=O)O[C@@H](c5ccoc5)[C@]4(C)CC[C@@H]3[C@@]1(C)C2=O`, the maximal number is inactive: 1.

As to `CCCCCCCCCCCC[C@@H](C(=O)O)[C@H](C)C(=O)O`, the maximal number is inactive: 1.

Regarding `CCC/C=C\C=C/C(=O)N[C@@H](CC(N)=O)C(=O)NC(CC(N)=O)C(=O)N[C@@H](C(=O)N[C@H](CCCN)C(=O)N[C@@H](C(=O)N[C@@H](C(=O)N[C@@H](C(=O)N[C@H](C(=O)N[C@@H](Cc1ccccc1)C(=O)N[C@H](CCCN)C(=O)NC(C(=O)N[C@H](C(=O)NC(C(=O)NCC(=O)N[C@@H](CC(C)C)C(=O)N[C@H](C)C(=O)NC(C(=O)O)C1CCC(O)C(Cl)C1)C1CCC(O)CC1)[C@H](C)O)C1CCC(O)CC1)[C@H](C)O)C1CCC(O)CC1)C1CCC(O)CC1)[C@H](C)O)C1CCC(O)CC1` (stereo partly drawn) [RAMOPLANIN [A2 shown; 2mM]], the maximal number was inactive: 1.
